Data as given in paper PMC10165932, “Tripeptides conjugated with thiosemicarbazones: new inhibitors of tyrosinase for cosmeceutical use” (Journal of Enzyme Inhibition and Medicinal Chemistry, 2023).
Where a SMILES comes first, the peptide text is derived from it.

Tested on: B16F0 murine melanoma cell line
Format: cell-based
Conditions: ratio, B16F0 (Figure 3)
Experimental: The effect of the synthetic compounds on melanogenesis inhibition was performed in B16F0 murine melanoma cell line. The mouse model of human skin is often employed in skin biology and cancer research due to numerous similarities.[62] B16F0 murine melanoma cell line shares most of the melanogenesis with human melanocytes. Therefore, it is the proper model for screening the effect of potential inhibitors on melanogenesis.[63]

SMILES	IC50 cell proliferation/ IC50 melanin production
CC(C(=O)N[C@@H](Cc1ccccc1)C(=O)N[C@@H](Cc1ccccc1)C(=O)N[C@@H](Cc1ccc(O)cc1)C(=O)O)c1cccc(C(=NNC(N)=S)c2ccccc2)c1 (mixture of isomers) [Compound 10, TSC2-FFY-OH]	0.5
CC(C(=O)N[C@@H](Cc1ccccc1)C(=O)N[C@@H](Cc1c[nH]c2ccccc12)C(=O)N[C@@H](Cc1ccc(O)cc1)C(=O)O)c1cccc(C(=NNC(N)=S)c2ccccc2)c1 (mixture of isomers) [Compound 12, TSC2-FWY-OH]	0.7
CC(C(=O)O)c1cccc(/C(=N\NC(N)=S)c2ccccc2)c1 (stereo not drawn) [Compound 2, thiosemicarbazone of ketoprofen]	3.6
CC(=O)N[C@@H](Cc1ccccc1)C(=O)N[C@@H](Cc1ccccc1)C(=O)N[C@@H](Cc1ccc(O)cc1)C(=O)O [Compound 4, Ac-FFY-OH] (Ac-Phe-Phe-Tyr-OH)	0.4
CC(=O)N[C@@H](Cc1ccccc1)C(=O)N[C@@H](Cc1ccc(O)cc1)C(=O)N[C@@H](Cc1ccc(O)cc1)C(=O)O [Compound 5, Ac-FYY-OH] (Ac-Phe-Tyr-Tyr-OH)	0.6
CC(=O)N[C@@H](Cc1ccccc1)C(=O)N[C@@H](Cc1c[nH]c2ccccc12)C(=O)N[C@@H](Cc1ccc(O)cc1)C(=O)O [Compound 6, Ac-FWY-OH] (Ac-Phe-Trp-Tyr-OH)	0.6
NC(=S)N/N=C/c1ccc(C(=O)N[C@@H](Cc2ccccc2)C(=O)N[C@@H](Cc2ccccc2)C(=O)N[C@@H](Cc2ccc(O)cc2)C(=O)O)cc1 [Compound 7, TSC1-FFY-OH]	0.5
NC(=S)N/N=C/c1ccc(C(=O)N[C@@H](Cc2ccccc2)C(=O)N[C@@H](Cc2ccc(O)cc2)C(=O)N[C@@H](Cc2ccc(O)cc2)C(=O)O)cc1 [Compound 8, TSC1-FYY-OH]	0.6
NC(=S)N/N=C/c1ccc(C(=O)N[C@@H](Cc2ccccc2)C(=O)N[C@@H](Cc2c[nH]c3ccccc23)C(=O)N[C@@H](Cc2ccc(O)cc2)C(=O)O)cc1 [Compound 9, TSC1-FWY-OH]	0.5
C/C(=N\NC(N)=S)c1ccc(C(=O)N[C@@H](Cc2ccccc2)C(=O)N[C@@H](Cc2ccccc2)C(=O)N[C@@H](Cc2ccc(O)cc2)C(=O)O)cc1 [Compound 13, TSC3-FFY-OH]	0.3
C/C(=N\NC(N)=S)c1ccc(C(=O)N[C@@H](Cc2ccccc2)C(=O)N[C@@H](Cc2ccc(O)cc2)C(=O)N[C@@H](Cc2ccc(O)cc2)C(=O)O)cc1 [Compound 14, TSC3-FYY-OH]	0.6
C/C(=N\NC(N)=S)c1ccc(C(=O)N[C@@H](Cc2ccccc2)C(=O)N[C@@H](Cc2c[nH]c3ccccc23)C(=O)N[C@@H](Cc2ccc(O)cc2)C(=O)O)cc1 [Compound 15, TSC3-FWY-OH]	1.0
